Values from PubChem BioAssay AID686938 (Drosophila RNAi Screening Center, 2013).
Screen: 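Fly genes required for calcium entry once internal stores are emptied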 (primary screen). Cells: Drosophila S2R+ cells. Reagents: long dsRNA against Drosophila genes, about 0.25 µg dsRNA per well, roughly 10,000 cells. Timing: 5 days of knock-down before the calcium assay. Treatment: thapsigargin (SERCA pump blocker) to empty calcium stores; entry signal taken 4 min after adding it. Measured: 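Duplicate raw fluo-4 intensities per well from a plate reader, at rest and four minutes after thapsigargin emptied calcium stores; entry-to-rest ratio filled for only some wells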. Reading the numbers: calcium entry signal: higher = stronger calcium signal after store depletion; entry to resting ratio: higher = more calcium entry relative to resting level; resting calcium signal: higher = higher resting calcium signal. Hit rule: 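Called when the plate z-score of the entry-to-rest ratio, mean of duplicates, falls below −3; wells with low overall dye signal (Fmax z below −2) or more than five off-targets excluded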. Meaning of the calls: active = strongly reduced calcium entry; inactive = no strong reduction.
In all, the deposit lists about 23,000 reagents; below is an unselected part of those that have a named target and a result. In the full data, 75 (0.33%) got an active call. 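Raw plate signals without normalisation; calls rest on plate z-scores that were not deposited; ratio present for only 364 wells.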 The numbers tell different reagents against one gene apart. Names joined by + are all predicted targets of the reagent. Not stated in the record: the dose of the treatment.

target gene,reagent,"calcium entry signal, replicate 1 (fluorescence units)","calcium entry signal, replicate 2 (fluorescence units)",entry to resting ratio,"resting calcium signal, replicate 1 (fluorescence units)","resting calcium signal, replicate 2 (fluorescence units)",Outcome
Pkc98E,1,2.90e7,3.19e7,,1.32e7,1.49e7,inactive
Prosalpha4,1,3.27e7,1.78e7,,1.69e7,9.31e6,inactive
CG12237,1,3.91e7,7.81e7,,1.87e7,2.92e7,inactive
CG12237,2,1.97e7,2.63e7,,1.02e7,1.34e7,inactive
osi,1,4.08e7,3.93e7,,1.84e7,1.82e7,inactive
Grl36a,1,3.93e7,4.16e7,,2.36e7,1.90e7,inactive
scrib,1,3.15e7,4.19e7,,1.52e7,2.04e7,inactive
scrib,2,3.78e7,3.90e7,,1.73e7,2.15e7,inactive
scrib,3,2.64e7,3.08e7,,1.21e7,1.38e7,inactive
scrib,4,2.10e7,3.95e7,,1.20e7,1.66e7,inactive
CG3587,1,2.87e7,8.09e7,,1.44e7,3.30e7,inactive
CG3587,2,3.31e7,4.89e7,,1.62e7,2.50e7,inactive
Tsp39D,1,4.00e7,5.46e7,,1.82e7,2.36e7,inactive
CG43333,1,4.88e7,3.54e7,,2.19e7,1.78e7,inactive
CG43333,2,2.58e7,2.90e7,,1.14e7,1.10e7,inactive
UBL3,1,4.12e7,3.50e7,,2.28e7,1.82e7,inactive
UBL3,2,4.42e7,3.23e7,,2.08e7,1.47e7,inactive
Mvk + CG33672 + spt4,1,4.61e7,6.00e7,,2.11e7,2.56e7,inactive
Mvk + CG33672 + spt4,2,3.85e7,4.51e7,,1.66e7,1.99e7,inactive
CG7985,1,4.87e7,4.12e7,,2.29e7,1.91e7,inactive
onecut,1,2.93e7,5.80e7,2,1.46e7,2.07e7,inactive
Cpr64Ab,1,3.56e7,3.15e7,,1.85e7,1.54e7,inactive
CG30172,1,4.16e7,4.12e7,,2.08e7,1.93e7,inactive
Eig71Ef,1,5.50e7,6.96e7,,2.55e7,2.75e7,inactive

2 entries from above, ordered by “calcium entry signal, replicate 1 (fluorescence units)”, low to high.
target gene,reagent,"calcium entry signal, replicate 1 (fluorescence units)","calcium entry signal, replicate 2 (fluorescence units)",entry to resting ratio,"resting calcium signal, replicate 1 (fluorescence units)","resting calcium signal, replicate 2 (fluorescence units)",Outcome
CG3587,2,3.31e7,4.89e7,,1.62e7,2.50e7,inactive
Tsp39D,1,4.00e7,5.46e7,,1.82e7,2.36e7,inactive
